At least one structure is not confirmed: it was looked up by name or label, or the drawing left a doubt. Some of these results come from one statement about several compounds together.
Tested on: P. aeruginosa
Format: cell-based, Pseudomonas aeruginosa
Conditions: not given

SMILES	% Growth Inhibition	growth-inhibitory activity toward P. aeruginosa
CO[C@H]1/C=C/O[C@@]2(C)Oc3c(C)c(O)c4c(O)c(c(/C=N/N5CCN(C)CC5)c(O)c4c3C2=O)NC(=O)/C(C)=C\C=C\[C@H](C)[C@H](O)[C@@H](C)[C@@H](O)[C@@H](C)[C@H](OC(C)=O)[C@@H]1C [Rifampin]	85-88%	–
C[C@]12CC[C@@H]3c4ccc(O)cc4CC[C@H]3[C@@H]1CC[C@@H]2O [Estradiol]	–	strong growth-inhibitory activity
O=C(O)c1cn(C2CC2)c2cc(N3CCNCC3)c(F)cc2c1=O [Ciprofloxacin]	85-88%	–
CCCCCCCCc1ccc(CCC(N)(CO)CO)cc1 [Fingolimod]	–	strong growth-inhibitory activity

Same assay, conditions: relative to the untreated strain, OD600 nm after 12 h

SMILES	% Growth Inhibition
Clc1ccc(C(c2ccccc2Cl)C(Cl)Cl)cc1 (stereo not shown) [Mitotane]	69-71%
CO[C@H]1/C=C/O[C@@]2(C)Oc3c(C)c(O)c4c(O)c(c(/C=N/N5CCN(C6CCCC6)CC5)c(O)c4c3C2=O)NC(=O)/C(C)=C\C=C\[C@H](C)[C@H](O)[C@@H](C)[C@@H](O)[C@@H](C)[C@H](OC(C)=O)[C@@H]1C [Rifapentine]	85-88%
Oc1c(Cl)cc(Cl)c(Cl)c1Cc1c(O)c(Cl)cc(Cl)c1Cl [Hexachlorophene]	93-94%
CN(C)c1ccc(O)c2c1C[C@H]1C[C@H]3[C@H](N(C)C)C(O)=C(C(N)=O)C(=O)[C@@]3(O)C(O)=C1C2=O [Minocycline]	85-88%
CO[C@H]1/C=C/O[C@@]2(C)Oc3c(C)c(O)c4c(c3C2=O)C2=NC3(CCN(CC(C)C)CC3)NC2=C(NC(=O)/C(C)=C\C=C\[C@H](C)[C@H](O)[C@@H](C)[C@@H](O)[C@@H](C)[C@H](OC(C)=O)[C@@H]1C)C4=O [Rifabutin]	85-88%
CCn1cc(C(=O)O)c(=O)c2cc(F)c(N3CCNCC3)cc21 [Norfloxacin]	79-83%
CC1COc2c(N3CCN(C)CC3)c(F)cc3c(=O)c(C(=O)O)cn1c23 (stereo not shown) [Ofloxacin]	79-83%
CO[C@H]1/C=C/O[C@@]2(C)Oc3c(C)c(O)c4c(O)c(c5c(nc6cc(C)ccn65)c4c3C2=O)NC(=O)/C(C)=C\C=C\[C@H](C)[C@H](O)[C@@H](C)[C@@H](O)[C@@H](C)[C@H](OC(C)=O)[C@@H]1C [Rifamixin]	85-88%
CC(=O)OC[C@H]1O[C@@H]([S-])[C@H](OC(C)=O)[C@@H](OC(C)=O)[C@@H]1OC(C)=O.CCP(CC)CC.[Au+] [Auranofin]	93-94%
C[C@H]1COc2c(N3CCN(C)CC3)c(F)cc3c(=O)c(C(=O)O)cn1c23 [Levofloxacin]	93-94%
C[C@@H](O)[C@H]1C(=O)N2C(C(=O)O)=C(S[C@@H]3CN[C@H](CNS(N)(=O)=O)C3)[C@H](C)[C@H]12 [Doripenem]	69-71%
COc1c(N2C[C@@H]3CCCN[C@@H]3C2)c(F)cc2c(=O)c(C(=O)O)cn(C3CC3)c12 [Moxifloxacin]	85-88%
CO/N=C1\CN(c2nc3c(cc2F)c(=O)c(C(=O)O)cn3C2CC2)CC1CN (stereo not shown) [Gemifloxacin]	79-83%
COc1c(N2CCNC(C)C2)c(F)cc2c(=O)c(C(=O)O)cn(C3CC3)c12 (stereo not shown) [Gatifloxacin]	79-83%

Tested on: virulence factor expression (seven lacZ reporter strains)
Format: cell-based, Pseudomonas aeruginosa
Conditions: LacZ activity normalized to negative control

SMILES	effect on virulence factor expression in screen
CCN(CC)C(=O)/C(C#N)=C/c1cc(O)c(O)c([N+](=O)[O-])c1 [entacapone]	A similar effect
